Where “and” joins values, the source holds several entries; their conditions need not be identical. Equal values may be shown once. Where a name gives a salt, the structure may show the parent alone. Some of the results follow. This is a noisy data set.

The test system of the assay is Salmonella enterica serovar Typhimurium ST313 D23580. Put plainly: normalized bacterial growth (OD600 20 h minus 0 h, interquartile-mean normalized) (fraction of plate interquartile mean); higher = more bacterial growth (less inhibition). The following applies: LPM (pH 5.8, low phosphate, low Mg2+), concentration: 10 µM, temperature: 37 °C.
With `O=c1c2ccccc2[nH]c(=S)n1CCN1CCC(=C(c2ccc(F)cc2)c2ccc(F)cc2)CC1` [Diacylglycerol Kinase Inhibitor II], the normalized bacterial growth turned out to be 1.08.

In the case of `Cc1c2oc3c(C)ccc(C(=O)N[C@@H]4C(=O)N[C@H](C(C)C)C(=O)N5CCC[C@H]5C(=O)N(C)CC(=O)N(C)[C@@H](C(C)C)C(=O)O[C@@H]4C)c3nc-2c(C(=O)N[C@@H]2C(=O)N[C@H](C(C)C)C(=O)N3CCC[C@H]3C(=O)N(C)CC(=O)N(C)[C@@H](C(C)C)C(=O)O[C@@H]2C)c(N)c1=O`, the normalized bacterial growth is 0.723 and 0.792.

With `COc1ccc2c(c1)c(CC(=O)OCC(=O)O)c(C)n2C(=O)c1ccc(Cl)cc1`, the normalized bacterial growth was 1.02.

Consider `CN1CC(=O)N=C1NC(=O)Nc1cccc(Cl)c1` [Fenobam], for which the normalized bacterial growth stood at 0.678.

Turning to `CCC(C)C(=O)OC1[C@@H]2CC3=C4CC(=O)O[C@@H](c5ccoc5)[C@]4(C)CCC3[C@@](C)(C2=O)[C@@H](CC(=O)OC)C1(C)C` (stereo partly drawn), the normalized bacterial growth amounted to 0.86.

On to `CC[C@H](C)C(=O)O[C@H]1C[C@H](O)C=C2C=C[C@H](C)[C@H](CC[C@@H](O)C[C@@H](O)CC(=O)O)[C@H]21`, for which the normalized bacterial growth was determined as 0.768.

`CCCc1c(OCCCOc2ccc(OCC(=O)O)cc2)ccc(C(C)=O)c1O`: the normalized bacterial growth is 0.854.

On to `CC1=C(C(=O)O)N2C(=O)[C@@H](NC(=O)[C@H](N)c3ccccc3)[C@H]2SC1` [Cephalexin hydrate], for which the normalized bacterial growth was determined as 1.07.

Turning to `CC1=C(C(=O)O)N2C(=O)[C@@H](NC(=O)[C@H](N)c3ccccc3)[C@H]2SC1` [Cephalexin monohydrate], the normalized bacterial growth is 1.03.

Take `CC(C)(C)NCC(O)COc1cccc2c1CC(O)C(O)C2` (stereo not drawn) [Nadolol]: the normalized bacterial growth turned out to be 1.09.

In the case of `CC(C)(C)NCC(O)COc1cccc2c1CC(O)C(O)C2` (stereo not drawn), the normalized bacterial growth came to 0.984.

`Cc1cccc(C)c1NC(=O)C[N+](C)(C)C` [Lidocaine N-methyl hydrochloride]: the normalized bacterial growth came to 0.757.

Compound `C[C@H](CCC(=O)NCCS(=O)(=O)O)[C@H]1CC[C@H]2[C@@H]3[C@H](O)C[C@@H]4C[C@H](O)CC[C@]4(C)[C@H]3C[C@H](O)[C@]12C` [Sodium Taurocholate hydrate] gave a normalized bacterial growth of 0.911.

In the case of `Cc1ccc(S(=O)(=O)/C=C/C#N)cc1`, the normalized bacterial growth worked out at 0.0603.

In turn, `CN(C)CC(=O)OC[C@@H](O)[C@@H](O)[C@H](O)[C@@H](O)C(=O)O` gave a normalized bacterial growth of 1.24.

In turn, `CCCn1c(=O)c2[nH]c(-c3ccc(OCC(=O)NCCN)cc3)nc2n(CCC)c1=O` [Xanthine amine congener] had a normalized bacterial growth of 1.02.

Consider `Cc1cc(O)cc(O)c1C(=O)O`, for which the normalized bacterial growth came out at 1.18.

`COc1cc2oc3cc(OC)c(OC)c(CC=C(C)C)c3c(=O)c2c(O)c1CC=C(C)C` returned a normalized bacterial growth of 1.08.

On to `CC(C)Cn1cnc2c(N)nc3ccccc3c21` [Imiquimod], for which the normalized bacterial growth was 1.05.

With `CC(=O)OCC(=O)[C@@]1(O)[C@H](OC(C)=O)C[C@H]2[C@@H]3CCC4=CC(=O)C=C[C@]4(C)[C@@]3(F)[C@@H](O)C[C@@]21C`, the normalized bacterial growth turned out to be 0.912.

`NC(=O)N1c2ccccc2CC(=O)c2ccccc21` gave a normalized bacterial growth of 0.996.

For the compound `NC1=NCC2c3ccccc3Cc3ccccc3N12` (stereo not drawn) [Epinastine hydrochloride], the normalized bacterial growth is 1.24.

`O=C(C=Cc1ccc(O)cc1)c1ccccc1O` gave a normalized bacterial growth of 1.25.

`COc1cc2c(cc1OC)-c1c/c(=N\c3c(C)cc(C)cc3C)n(C)c(=O)n1CC2` [Trequinsin hydrochloride] had a normalized bacterial growth of 0.993.

Consider `CC(=O)O[C@@H]1CC[C@@]2(C)C(C[C@@H](OC(C)=O)[C@@]3(C)C4=CC(=O)O[C@@H](c5ccoc5)[C@]4(C)CCC23)C1(C)C` (stereo partly drawn) [3alpha-ACETOXYDIHYDRODEOXYGEDUNIN], for which the normalized bacterial growth was determined as 0.812.

For the compound `O=C(O)CCCC[C@@H]1CCSS1`, the normalized bacterial growth was 0.995.

Compound `CC(=O)O[C@H]1C[C@@H](O)C(C)(C)[C@@H]2C[C@@H](OC(C)=O)[C@]3(C)[C@H](CC[C@@]4(C)[C@@H](c5ccoc5)OC(=O)[C@H]5O[C@@]534)[C@@]12C` yielded a normalized bacterial growth of 0.69.

`C=C(C)[C@H]1COc2cc3oc(=O)ccc3cc2O1`: the normalized bacterial growth was found to be 0.83.

On to `O=C1Nc2ccc(I)cc2/C1=C/c1cc(Br)c(O)c(Br)c1`, for which the normalized bacterial growth came to 0.961.

Consider `O=C1N=C(O)NC1(c1ccccc1)c1ccccc1` [Phenytoin sodium], for which the normalized bacterial growth was 1.08.

`O=C1N=C(O)NC1(c1ccccc1)c1ccccc1` showed a normalized bacterial growth of 1.03.

In turn, `COc1cc(NS(=O)(=O)c2ccc(N)cc2)nc(OC)n1` had a normalized bacterial growth of 1.32.

Turning to `CC[N+](CC)(CC(=O)Nc1c(C)cccc1C)Cc1ccccc1`, the normalized bacterial growth is 1.13.

Compound `C=N[C@@H](C(=O)N[C@@H]1C(=O)N2[C@@H]1SC(C)(C)[C@@H]2C(=O)O)c1ccccc1` [Metampicillin sodium salt] showed a normalized bacterial growth of 1.08.

For `CC1(C)O[C@@H]2[C@@H](CO[C@@]3(COS(N)(=O)=O)OC(C)(C)O[C@@H]23)O1`, the normalized bacterial growth turned out to be 0.86.

With `COc1cc2ccc(=O)oc2cc1O`, the normalized bacterial growth turned out to be 1.04.

On to `NCCC(=O)NCCc1c[nH]cn1` [Carcinine], for which the normalized bacterial growth was determined as 1.08.

Regarding `CC(C)[C@@H]1CC[C@@H](C)CC1=O`, the normalized bacterial growth amounted to 0.981.

`NCCCCN` [Putrescine dihydrochloride]: the normalized bacterial growth was determined as 0.892.

Consider `CC1=CC2C(CC1=O)C(C)=CCC2C(C)C` (stereo not drawn), for which the normalized bacterial growth turned out to be 1.04.

Regarding `CCCCCCCCNC(C)C(O)c1ccc(SC(C)C)cc1` (stereo not drawn), the normalized bacterial growth is 0.803.

`CCCCCCCCNC(C)C(O)c1ccc(SC(C)C)cc1` (stereo not drawn) [Suloctidil] had a normalized bacterial growth of 0.743.

Take `CC(=O)CC(c1ccc([N+](=O)[O-])cc1)c1c(O)c2ccccc2oc1=O` (stereo not drawn) [Acenocoumarol]: the normalized bacterial growth was determined as 1.08.

In the case of `C[C@H]1O[C@@H](O[C@H]2[C@@H](O)C[C@H](O[C@H]3[C@@H](O)C[C@H](O[C@H]4CC[C@@]5(C)[C@H](CC[C@@H]6[C@@H]5CC[C@]5(C)[C@@H](C7=CC(=O)OC7)CC[C@]65O)C4)O[C@@H]3C)O[C@@H]2C)C[C@H](O)[C@@H]1O`, the normalized bacterial growth was found to be 0.877.

With `C=C(C)[C@@H]1CC[C@]2(C)CC[C@]3(C)[C@H](CC[C@@H]4[C@@]5(C)CC[C@H](O)C(C)(C)[C@@H]5CC[C@]43C)[C@@H]12`, the normalized bacterial growth was 1.03.

In turn, `S=c1[nH]cnc2nc[nH]c12` displayed a normalized bacterial growth of 0.23.

In the case of `COc1cc2c(cc1OC)[C@@H]1C(=O)c3ccc4c(c3O[C@@H]1CO2)C=CC(C)(C)O4`, the normalized bacterial growth was 0.756.

On to `CC(=O)/C=C\[C@@H]1[C@@]2(C)CCCC(C)(C)C2CC[C@@]1(C)O` (stereo partly drawn), for which the normalized bacterial growth turned out to be 0.808.

Consider `COc1ccc2c3c1O[C@H]1C[C@@H](O)C=C[C@@]31CCN(C)C2`, for which the normalized bacterial growth was 1.12 and 0.899.

As for `CCCCC1(C2CCCC2)Cc2cc(OCC(=O)O)c(Cl)c(Cl)c2C1=O` (stereo in doubt) [R(+)-Butylindazone], the normalized bacterial growth was found to be 0.637.

`CCCC(=O)O[C@]1(C(=O)CO)CC[C@H]2[C@@H]3CCC4=CC(=O)CC[C@]4(C)[C@H]3[C@@H](O)C[C@@]21C` registered a normalized bacterial growth of 0.997.

Consider `CC1(C)S[C@@H]2[C@H](NC(=O)COc3ccccc3)C(=O)N2[C@H]1C(=O)O`, for which the normalized bacterial growth turned out to be 0.612.

In the case of `Cc1nnc(SCC2=C(C(=O)O)N3C(=O)[C@@H](NC(=O)Cn4cnnn4)[C@H]3SC2)s1` [Cefazolin sodium], the normalized bacterial growth is 0.912.

`O=C1OC(=O)[C@H]2[C@@H]1[C@@H]1CC[C@H]2O1` [Norcantharidin] gave a normalized bacterial growth of 1.05.

Consider `C[C@]12CCC3c4ccc(OS(=O)(=O)O)cc4CCC3C1CC[C@H]2O` (stereo partly drawn), for which the normalized bacterial growth came to 1.23.

Regarding `CC(C)NC(=N)NC(=N)Nc1ccc(Cl)cc1`, the normalized bacterial growth was 1.42.

Compound `O=c1[nH]c2cc(Cl)c(Cl)cc2[nH]c1=O` ["6,7-Dichloroquinoxaline-2,3-dione"] gave a normalized bacterial growth of 1.01.

`COC(=O)[C@@H](N)Cc1ccc(O)c(O)c1` ["L-3,4-Dihydroxyphenylalanine methyl ester hydrochloride"] came in with a normalized bacterial growth of 0.919.

For `C[C@]12CCC(=O)C=C1C=C[C@@H]1[C@@H]2CC[C@@]2(C)[C@H]1CC[C@@]21CCC(=O)O1`, the normalized bacterial growth came to 0.779.

Take `COc1ccc2c(c1)c(CC(=O)O)c(C)n2Cc1ccc(Cl)cc1` [1-(4-Chlorobenzyl)-5-methoxy-2-methylindole-3-acetic acid]: the normalized bacterial growth was 0.573.

For the compound `CC1(C)[C@@H](O)CC[C@]2(C)[C@H]3C(=O)C=C4[C@@H]5C[C@@](C)(C(=O)O)CC[C@]5(C)CC[C@@]4(C)[C@]3(C)CC[C@@H]12`, the normalized bacterial growth is 1.06.

In the case of `C[C@@H]1O[C@@H](OC[C@H]2O[C@@H](Oc3cc(O)c4c(c3)O[C@H](c3ccc(O)c(O)c3)CC4=O)[C@H](O)[C@@H](O)[C@@H]2O)[C@H](O)[C@H](O)[C@H]1O`, the normalized bacterial growth was determined as 1.33.

On to `Oc1cc(O)c2c(c1)O[C@H](c1ccc(O)c(O)c1)[C@@H](O)C2` (racemic) ["Catechin-(+,-) hydrate"], for which the normalized bacterial growth turned out to be 1.42.

As to `CCCCCC(=O)Cc1cc(O)cc(O)c1C(=O)Oc1cc(CC(=O)CCCCC)c(C(=O)O)c(OC)c1`, the normalized bacterial growth worked out at 0.864.

Turning to `COc1ccc(-c2coc3cc(O)ccc3c2=O)c(O)c1O`, the normalized bacterial growth came out at 0.606.

As for `NC(=O)OCC(O)COc1ccc(Cl)cc1` (stereo not drawn) [Chlorphensin carbamate], the normalized bacterial growth stood at 0.845.

`NCCS` [Cysteamine hydrochloride] yielded a normalized bacterial growth of 1.01.

The compound `COCCOC(=O)C1=C(C)NC(C)=C(C(=O)OC(C)C)C1c1cccc([N+](=O)[O-])c1` (stereo not drawn) [Nimodipine] showed a normalized bacterial growth of 0.957.

Regarding `CN1C(C(=O)Nc2ccccn2)=C(O)c2ccccc2S1(=O)=O` [Piroxicam], the normalized bacterial growth is 0.881.

In turn, `NC(=O)c1ccc[n+]([C@@H]2O[C@H](COP(=O)([O-])OP(=O)(O)OC[C@H]3O[C@@H](n4cnc5c(N)ncnc54)[C@H](O)[C@@H]3O)[C@@H](O)[C@H]2O)c1` returned a normalized bacterial growth of 1.26.

In the case of `CNCCC=C1c2ccccc2C=Cc2ccccc21` [Norcyclobenzaprine], the normalized bacterial growth was determined as 1.11.

As to `NCC(=O)CCC(=O)O`, the normalized bacterial growth was 0.682.

`N=C(N)SCCc1ccc(CCSC(=N)N)cc1` ["1,4-PBIT dihydrobromide"] registered a normalized bacterial growth of 0.949.

`COc1ccc(CN(CCN(C)C)c2ncccn2)cc1` yielded a normalized bacterial growth of 1.2.

Take `COc1c2ccoc2cc2oc(C)cc(=O)c12`: the normalized bacterial growth is 0.915.

On to `Cc1ccc(C)c(OCCCC(C)(C)C(=O)O)c1`, for which the normalized bacterial growth was 0.743.

`O=c1[nH]c2cc(Cl)ccc2c(O)c1-c1cccc(Oc2ccccc2)c1` registered a normalized bacterial growth of 1.16.

Regarding `C=CCN1CCc2c(cc(O)c(O)c2Cl)C(c2ccccc2)C1` (stereo not drawn) [()-Chloro-APB hydrobromide], the normalized bacterial growth was 0.719.
